We go through 2 substances from article PMC13059805.

These are yes or no findings as the source states them, for the method shown. In cells and extracts the contact can be indirect. For part of these data: A result given as binding can be weak or reduced; the word gives no strength. Sequences can lack the tags named with a protein.

Experiment [1] deals with T1, EssC with a C-terminal Twin-Strep tag (S. aureus USA300 LAC*) (UniProt Q2G184).
T1 sequence: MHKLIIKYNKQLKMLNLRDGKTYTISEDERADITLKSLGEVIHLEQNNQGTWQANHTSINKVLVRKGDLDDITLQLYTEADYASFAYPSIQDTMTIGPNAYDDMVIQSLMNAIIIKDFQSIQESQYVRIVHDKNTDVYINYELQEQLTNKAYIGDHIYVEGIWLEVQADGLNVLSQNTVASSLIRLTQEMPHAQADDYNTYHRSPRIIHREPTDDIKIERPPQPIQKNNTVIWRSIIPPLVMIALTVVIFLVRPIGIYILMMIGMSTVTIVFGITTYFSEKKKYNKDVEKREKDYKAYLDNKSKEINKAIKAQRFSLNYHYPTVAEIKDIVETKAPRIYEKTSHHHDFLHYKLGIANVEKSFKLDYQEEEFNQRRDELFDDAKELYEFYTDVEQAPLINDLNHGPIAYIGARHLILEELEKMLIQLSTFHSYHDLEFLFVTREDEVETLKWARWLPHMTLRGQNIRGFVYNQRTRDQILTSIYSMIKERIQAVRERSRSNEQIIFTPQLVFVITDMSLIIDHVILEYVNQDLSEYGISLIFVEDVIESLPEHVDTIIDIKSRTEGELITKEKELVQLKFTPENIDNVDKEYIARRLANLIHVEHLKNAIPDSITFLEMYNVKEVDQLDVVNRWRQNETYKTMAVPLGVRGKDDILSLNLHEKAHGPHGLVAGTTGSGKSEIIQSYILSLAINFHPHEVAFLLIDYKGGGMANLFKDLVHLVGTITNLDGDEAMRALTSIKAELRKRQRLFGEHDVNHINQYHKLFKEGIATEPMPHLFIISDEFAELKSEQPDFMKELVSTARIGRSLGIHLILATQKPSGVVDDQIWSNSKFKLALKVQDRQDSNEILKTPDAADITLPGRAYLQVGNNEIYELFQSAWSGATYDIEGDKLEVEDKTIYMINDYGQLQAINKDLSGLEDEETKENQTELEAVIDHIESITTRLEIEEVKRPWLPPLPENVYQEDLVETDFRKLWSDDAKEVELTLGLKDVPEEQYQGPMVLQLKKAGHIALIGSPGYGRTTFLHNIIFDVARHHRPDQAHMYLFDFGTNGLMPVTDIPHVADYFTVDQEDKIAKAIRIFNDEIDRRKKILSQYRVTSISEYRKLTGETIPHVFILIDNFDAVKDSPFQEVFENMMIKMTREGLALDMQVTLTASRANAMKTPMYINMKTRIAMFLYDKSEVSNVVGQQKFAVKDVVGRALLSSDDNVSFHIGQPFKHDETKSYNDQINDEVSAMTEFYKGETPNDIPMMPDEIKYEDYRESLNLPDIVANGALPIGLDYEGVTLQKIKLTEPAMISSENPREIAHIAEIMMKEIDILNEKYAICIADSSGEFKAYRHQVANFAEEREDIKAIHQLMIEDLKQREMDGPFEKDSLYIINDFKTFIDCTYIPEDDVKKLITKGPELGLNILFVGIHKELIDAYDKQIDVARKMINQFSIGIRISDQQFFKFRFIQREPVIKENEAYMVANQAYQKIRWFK
The experiment is described as follows: pull-down; EssCTS held on Strep-Tactin Sepharose from 0.25% DDM extracts of S. aureus membranes (wild type, ∆essH and ∆esaA hosts, T7 permissive culture); 4°C, Buffer A (20 mM Tris pH 8, 300 mM NaCl, 10% glycerol), wash with amphipol A8-35, elution with 5 mM desthiobiotin; eluates immunoblotted; untagged EssC as control. Background: Immunoblotting shows a protein as a band on a membrane.

Experiment [2] addresses T1, EssC with a C-terminal Twin-Strep tag (S. aureus USA300 LAC*). As to the kind of experiment: pull-down; as a1, but from membranes of the ∆esaA mutant carrying pessCTS (no EsaA made).

In the case of “EssH (S. aureus USA300 LAC* (endogenous)) (enzyme)”, the binding result in experiment [1] is “binds”.

With “EssA (S. aureus USA300 LAC* (endogenous))”, the binding result in experiment [2] was “no binding (only in the ∆esaA mutant)”; in experiment [1], “binds”.
